Measured values from the supplement of paper PMC10849652.
Some of the results follow.

Amino acid sequences for entries named in this document (tags omitted). A change or cut given only in a name is not applied to a line headed by its entry.
UniProt Q9C0K1: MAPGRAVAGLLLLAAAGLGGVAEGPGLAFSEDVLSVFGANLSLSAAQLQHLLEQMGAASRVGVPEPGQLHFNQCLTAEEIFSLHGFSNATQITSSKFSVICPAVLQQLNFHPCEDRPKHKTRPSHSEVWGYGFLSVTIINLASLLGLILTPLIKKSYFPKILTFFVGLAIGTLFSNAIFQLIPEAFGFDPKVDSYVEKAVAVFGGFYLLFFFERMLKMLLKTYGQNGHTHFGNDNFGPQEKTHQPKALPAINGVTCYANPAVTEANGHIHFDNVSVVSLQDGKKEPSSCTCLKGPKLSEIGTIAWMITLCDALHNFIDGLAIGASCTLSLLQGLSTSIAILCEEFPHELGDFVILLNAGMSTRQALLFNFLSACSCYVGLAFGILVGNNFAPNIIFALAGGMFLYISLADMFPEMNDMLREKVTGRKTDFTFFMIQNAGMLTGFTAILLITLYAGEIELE
UniProt P0CK96: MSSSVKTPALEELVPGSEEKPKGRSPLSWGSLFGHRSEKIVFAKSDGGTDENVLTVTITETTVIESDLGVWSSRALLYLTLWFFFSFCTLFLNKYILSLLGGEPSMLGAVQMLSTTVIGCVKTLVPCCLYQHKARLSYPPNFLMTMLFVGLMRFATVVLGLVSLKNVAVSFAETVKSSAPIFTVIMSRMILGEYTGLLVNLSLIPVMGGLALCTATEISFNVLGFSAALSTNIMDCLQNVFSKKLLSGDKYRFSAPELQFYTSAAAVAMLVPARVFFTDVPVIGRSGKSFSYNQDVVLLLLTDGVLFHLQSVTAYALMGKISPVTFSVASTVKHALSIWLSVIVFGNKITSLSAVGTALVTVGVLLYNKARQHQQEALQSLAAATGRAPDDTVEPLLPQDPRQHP
UniProt Q8N755: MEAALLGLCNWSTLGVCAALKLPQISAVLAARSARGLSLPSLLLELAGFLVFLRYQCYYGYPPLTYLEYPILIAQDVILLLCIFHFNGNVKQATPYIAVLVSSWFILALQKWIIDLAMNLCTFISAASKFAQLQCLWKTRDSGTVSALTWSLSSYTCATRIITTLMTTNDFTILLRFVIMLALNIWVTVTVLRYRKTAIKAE
UniProt Q9Y2E8: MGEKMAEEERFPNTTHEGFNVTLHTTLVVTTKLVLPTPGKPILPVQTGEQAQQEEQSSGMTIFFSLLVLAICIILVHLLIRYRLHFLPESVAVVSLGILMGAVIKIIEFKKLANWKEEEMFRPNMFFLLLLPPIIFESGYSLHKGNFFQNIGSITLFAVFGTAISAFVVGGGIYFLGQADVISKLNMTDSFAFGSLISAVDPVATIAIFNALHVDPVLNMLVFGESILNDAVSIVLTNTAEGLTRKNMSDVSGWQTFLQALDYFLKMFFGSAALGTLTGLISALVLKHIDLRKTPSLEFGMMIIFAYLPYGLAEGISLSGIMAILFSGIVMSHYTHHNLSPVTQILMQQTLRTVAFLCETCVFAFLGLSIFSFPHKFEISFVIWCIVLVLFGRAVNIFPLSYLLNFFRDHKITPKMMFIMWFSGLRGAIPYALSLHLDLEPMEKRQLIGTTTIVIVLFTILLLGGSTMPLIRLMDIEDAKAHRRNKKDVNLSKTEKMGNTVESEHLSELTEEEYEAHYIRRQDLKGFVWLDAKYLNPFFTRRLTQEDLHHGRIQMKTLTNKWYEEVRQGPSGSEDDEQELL
UniProt Q9BZD2: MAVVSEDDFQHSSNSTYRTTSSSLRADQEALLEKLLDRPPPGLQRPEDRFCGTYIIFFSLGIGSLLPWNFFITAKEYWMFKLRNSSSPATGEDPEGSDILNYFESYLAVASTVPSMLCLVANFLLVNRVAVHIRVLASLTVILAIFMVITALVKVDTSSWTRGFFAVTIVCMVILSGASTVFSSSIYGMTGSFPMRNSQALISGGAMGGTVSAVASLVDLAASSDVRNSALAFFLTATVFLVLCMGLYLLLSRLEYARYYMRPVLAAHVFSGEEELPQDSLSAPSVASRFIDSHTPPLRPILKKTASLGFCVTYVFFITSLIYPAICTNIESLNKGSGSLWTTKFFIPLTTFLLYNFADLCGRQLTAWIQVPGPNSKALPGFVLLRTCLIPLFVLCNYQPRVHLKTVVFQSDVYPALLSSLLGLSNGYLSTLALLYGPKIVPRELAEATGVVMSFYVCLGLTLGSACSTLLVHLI
UniProt Q96BD0: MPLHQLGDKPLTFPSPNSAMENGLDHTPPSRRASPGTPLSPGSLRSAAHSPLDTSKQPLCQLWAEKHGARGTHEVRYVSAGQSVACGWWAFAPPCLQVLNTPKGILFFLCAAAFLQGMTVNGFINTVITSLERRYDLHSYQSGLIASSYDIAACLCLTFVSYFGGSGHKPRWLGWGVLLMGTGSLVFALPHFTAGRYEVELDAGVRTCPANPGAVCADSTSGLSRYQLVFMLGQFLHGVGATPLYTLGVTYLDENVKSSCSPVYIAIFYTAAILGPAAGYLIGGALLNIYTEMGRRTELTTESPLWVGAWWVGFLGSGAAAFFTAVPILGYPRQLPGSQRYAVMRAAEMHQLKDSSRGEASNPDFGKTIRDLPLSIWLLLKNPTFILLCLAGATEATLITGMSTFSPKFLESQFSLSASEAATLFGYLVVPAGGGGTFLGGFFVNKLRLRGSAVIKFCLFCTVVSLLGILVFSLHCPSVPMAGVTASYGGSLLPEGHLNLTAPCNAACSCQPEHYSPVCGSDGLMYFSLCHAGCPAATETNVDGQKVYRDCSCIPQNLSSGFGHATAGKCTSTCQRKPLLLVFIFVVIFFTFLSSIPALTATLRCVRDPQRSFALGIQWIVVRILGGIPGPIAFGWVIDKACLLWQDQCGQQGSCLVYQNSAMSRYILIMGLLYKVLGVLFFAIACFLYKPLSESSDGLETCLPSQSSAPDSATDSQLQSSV
UniProt Q8N2U9: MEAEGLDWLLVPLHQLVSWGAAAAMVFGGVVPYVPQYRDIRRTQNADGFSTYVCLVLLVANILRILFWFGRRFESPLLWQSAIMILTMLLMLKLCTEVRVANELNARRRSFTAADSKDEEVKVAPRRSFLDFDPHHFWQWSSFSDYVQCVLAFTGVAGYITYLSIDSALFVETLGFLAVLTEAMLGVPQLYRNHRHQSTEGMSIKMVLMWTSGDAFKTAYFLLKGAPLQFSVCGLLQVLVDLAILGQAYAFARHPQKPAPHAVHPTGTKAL
UniProt O94956: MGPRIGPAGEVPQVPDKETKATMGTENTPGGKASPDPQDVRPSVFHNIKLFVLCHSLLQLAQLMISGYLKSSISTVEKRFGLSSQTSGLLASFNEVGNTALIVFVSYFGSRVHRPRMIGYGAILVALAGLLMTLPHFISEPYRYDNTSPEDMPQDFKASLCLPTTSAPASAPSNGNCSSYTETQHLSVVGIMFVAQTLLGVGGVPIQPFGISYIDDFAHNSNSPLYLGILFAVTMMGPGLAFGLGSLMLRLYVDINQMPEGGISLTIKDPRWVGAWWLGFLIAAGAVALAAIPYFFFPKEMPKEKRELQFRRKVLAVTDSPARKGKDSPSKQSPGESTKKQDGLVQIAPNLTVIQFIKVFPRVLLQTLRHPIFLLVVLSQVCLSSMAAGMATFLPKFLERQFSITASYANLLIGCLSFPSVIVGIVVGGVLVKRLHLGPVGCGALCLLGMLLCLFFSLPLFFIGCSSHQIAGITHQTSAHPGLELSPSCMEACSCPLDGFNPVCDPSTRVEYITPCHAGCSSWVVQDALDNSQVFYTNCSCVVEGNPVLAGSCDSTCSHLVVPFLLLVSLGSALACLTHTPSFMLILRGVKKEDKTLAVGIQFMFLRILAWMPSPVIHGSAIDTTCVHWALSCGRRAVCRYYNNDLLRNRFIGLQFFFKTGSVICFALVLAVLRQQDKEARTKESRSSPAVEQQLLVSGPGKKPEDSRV
UniProt Q8WWI5: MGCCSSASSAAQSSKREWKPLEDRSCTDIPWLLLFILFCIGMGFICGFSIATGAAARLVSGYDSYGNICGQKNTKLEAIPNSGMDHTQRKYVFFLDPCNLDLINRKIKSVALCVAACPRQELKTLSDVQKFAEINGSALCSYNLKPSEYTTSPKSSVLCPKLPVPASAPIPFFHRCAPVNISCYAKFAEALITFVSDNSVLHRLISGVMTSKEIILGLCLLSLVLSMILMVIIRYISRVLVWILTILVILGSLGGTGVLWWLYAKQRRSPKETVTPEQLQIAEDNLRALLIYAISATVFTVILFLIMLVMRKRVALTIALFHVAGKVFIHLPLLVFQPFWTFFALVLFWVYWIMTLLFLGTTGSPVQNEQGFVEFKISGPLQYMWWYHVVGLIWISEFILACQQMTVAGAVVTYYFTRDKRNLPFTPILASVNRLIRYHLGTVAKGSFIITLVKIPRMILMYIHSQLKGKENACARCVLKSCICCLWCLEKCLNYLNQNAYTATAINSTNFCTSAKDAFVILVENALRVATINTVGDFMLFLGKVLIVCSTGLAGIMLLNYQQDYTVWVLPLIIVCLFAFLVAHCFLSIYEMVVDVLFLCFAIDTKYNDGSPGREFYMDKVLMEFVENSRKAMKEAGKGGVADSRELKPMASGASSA
UniProt Q9BRV3: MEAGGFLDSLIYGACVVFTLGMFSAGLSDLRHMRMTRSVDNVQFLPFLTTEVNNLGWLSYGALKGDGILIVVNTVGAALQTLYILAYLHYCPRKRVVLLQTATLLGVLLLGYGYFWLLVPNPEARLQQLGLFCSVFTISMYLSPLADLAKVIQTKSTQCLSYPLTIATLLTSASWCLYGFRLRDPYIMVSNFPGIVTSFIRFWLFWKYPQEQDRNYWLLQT
UniProt Q13433: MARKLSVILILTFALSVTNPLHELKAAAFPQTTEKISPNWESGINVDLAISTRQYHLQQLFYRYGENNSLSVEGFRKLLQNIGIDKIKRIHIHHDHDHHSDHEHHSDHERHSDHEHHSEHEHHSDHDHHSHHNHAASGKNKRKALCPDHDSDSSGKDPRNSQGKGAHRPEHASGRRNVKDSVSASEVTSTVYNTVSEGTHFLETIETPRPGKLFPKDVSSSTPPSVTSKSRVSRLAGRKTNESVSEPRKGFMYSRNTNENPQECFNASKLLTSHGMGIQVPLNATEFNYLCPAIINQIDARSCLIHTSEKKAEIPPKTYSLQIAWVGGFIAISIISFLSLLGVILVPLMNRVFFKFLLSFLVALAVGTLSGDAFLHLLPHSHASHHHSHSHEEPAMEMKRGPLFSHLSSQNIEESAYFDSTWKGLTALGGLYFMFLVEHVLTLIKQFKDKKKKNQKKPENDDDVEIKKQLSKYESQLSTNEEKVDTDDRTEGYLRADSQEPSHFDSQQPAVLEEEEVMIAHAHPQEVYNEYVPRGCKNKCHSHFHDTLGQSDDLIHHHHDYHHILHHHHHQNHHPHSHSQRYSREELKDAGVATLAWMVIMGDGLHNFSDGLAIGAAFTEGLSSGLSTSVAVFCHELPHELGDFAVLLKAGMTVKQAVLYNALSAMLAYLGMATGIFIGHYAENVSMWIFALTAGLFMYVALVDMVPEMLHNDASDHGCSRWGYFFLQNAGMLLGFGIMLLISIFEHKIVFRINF
UniProt Q96CQ1: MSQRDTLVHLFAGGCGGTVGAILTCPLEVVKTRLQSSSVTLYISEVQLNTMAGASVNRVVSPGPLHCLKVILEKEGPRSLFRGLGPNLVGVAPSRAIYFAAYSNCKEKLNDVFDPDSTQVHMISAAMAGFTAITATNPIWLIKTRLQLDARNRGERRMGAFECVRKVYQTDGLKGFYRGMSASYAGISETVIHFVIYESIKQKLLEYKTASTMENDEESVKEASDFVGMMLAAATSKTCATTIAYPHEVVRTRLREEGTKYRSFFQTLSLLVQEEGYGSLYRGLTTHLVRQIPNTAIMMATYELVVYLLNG
UniProt Q8IZM9: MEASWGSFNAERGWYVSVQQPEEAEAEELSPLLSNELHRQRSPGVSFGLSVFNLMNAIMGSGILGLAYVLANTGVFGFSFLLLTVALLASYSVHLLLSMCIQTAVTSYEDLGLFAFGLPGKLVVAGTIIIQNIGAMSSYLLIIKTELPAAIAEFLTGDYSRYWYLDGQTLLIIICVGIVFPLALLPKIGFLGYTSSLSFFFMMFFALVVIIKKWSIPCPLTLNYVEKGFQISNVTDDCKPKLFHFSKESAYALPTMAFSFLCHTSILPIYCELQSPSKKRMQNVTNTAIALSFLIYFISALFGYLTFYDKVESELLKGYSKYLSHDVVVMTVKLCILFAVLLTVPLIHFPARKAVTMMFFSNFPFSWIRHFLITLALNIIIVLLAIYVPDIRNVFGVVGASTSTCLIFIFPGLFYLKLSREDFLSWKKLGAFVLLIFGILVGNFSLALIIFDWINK
UniProt Q9BZJ4: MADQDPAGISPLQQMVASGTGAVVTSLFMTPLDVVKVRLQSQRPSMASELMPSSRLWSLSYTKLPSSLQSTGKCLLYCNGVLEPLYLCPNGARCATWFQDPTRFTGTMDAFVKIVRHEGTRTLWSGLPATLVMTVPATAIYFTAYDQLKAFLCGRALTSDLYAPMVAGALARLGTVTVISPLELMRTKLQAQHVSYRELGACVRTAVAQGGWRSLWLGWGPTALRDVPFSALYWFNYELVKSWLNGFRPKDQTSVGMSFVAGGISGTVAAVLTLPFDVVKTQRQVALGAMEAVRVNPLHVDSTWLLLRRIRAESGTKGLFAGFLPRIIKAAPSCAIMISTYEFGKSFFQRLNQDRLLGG

What was measured:
Assay in all cases: log2 fold change, soluble protein after heating vs DMSO (PISA); higher = thermal stabilisation; K562 lysate, 10 uM; active = over 0.2 and 3.5 SD of the protein, either way, in both replicates (recomputed)
[1] = compound: CC1=C2C(=CC=C1)N=C(N(C2=O)C3=CC=CC=C3C)CN4C=NC5=C(N=CN=C54)N
How it was run: (§1)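 To prepare the extract, K562 pellets were dounce-homogenised in PBS pH 7.4 with 1 mM MgCl2, giving crude material at 1 mg/mL protein. This was treated with 10 μM compound for 30 min, then heated in aliquots for 3 min over 48°C-58°C before pooling and addition of NP-40 to 0.5% at 4°C. Centrifugation at 21,000xg for 90 min left soluble protein in the supernatant, which TMTpro 16plex LC-MS/MS quantified with equalised channel sums. Results are log-two fold changes in thermal stability compared with solvent controls, from duplicates.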

[2] = compound: c1ccc([C@@H]2C[C@H]2NC2CCNCC2)cc1
How it was run: as §1

[3] = compound: C1=CC=C(C=C1)[C@H](COC2=CC3=C(C=C2)NC(=O)N3)NC(=O)C4=CC=CN(C4=O)CC5=CC(=C(C=C5)F)F
How it was run: as §1

[4] = compound: CC1=C(SC2=C1C(=N[C@H](C3=NN=C(N32)C)CC(=O)N)C4=CC=C(C=C4)Cl)C
How it was run: as §1

[5] = compound: Cc1sc2c(c1C)C(c1ccc(Cl)cc1)=N[C@@H](CC(=O)OC(C)(C)C)c1nnc(C)n1-2
How it was run: as §1

SLC39A8 (UniProt Q9C0K1)
log2 fold change [1]: inactive: 0.177 | log2 fold change [2]: inactive: -0.031

SLC36A4 (UniProt Q6YBV0)
log2 fold change [3]: inactive: 0.163 | log2 fold change [4]: inactive: 0.105 | log2 fold change [5]: inactive: -0.149 | log2 fold change [2]: inactive: 0.022

SLC35A1 (UniProt P78382)
log2 fold change [3]: inactive: -0.053 | log2 fold change [4]: inactive: -0.022 | log2 fold change [1]: inactive: 0.045 | log2 fold change [2]: inactive: -0.109

SLC35E2B (UniProt P0CK96)
log2 fold change [1]: inactive: 0.098

SLC66A3 (UniProt Q8N755)
log2 fold change [1]: inactive: 0.053 | log2 fold change [5]: inactive: -0.263

SLC25A35 (UniProt Q3KQZ1)
log2 fold change [2]: inactive: 0.047

SLC35C2 isoform 3 (UniProt Q9NQQ7)
log2 fold change [3]: inactive: -0.125 | log2 fold change [4]: inactive: 0.056 | log2 fold change [5]: inactive: -0.037 | log2 fold change [2]: inactive: 0.052

SLC9A8 isoform 2 (UniProt Q9Y2E8)
log2 fold change [3]: inactive: -0.022 | log2 fold change [4]: inactive: -0.082 | log2 fold change [5]: inactive: 0.01 | log2 fold change [2]: inactive: -0.039

SLC29A3 (UniProt Q9BZD2)
log2 fold change [2]: inactive: -0.012

SLCO4A1 (UniProt Q96BD0)
log2 fold change [3]: inactive: 0.203 | log2 fold change [4]: inactive: -0.372 | log2 fold change [2]: inactive: -0.013

SLC2A13 (UniProt Q96QE2)
log2 fold change [5]: inactive: -0.187 | log2 fold change [2]: inactive: 0

SLC66A2 (UniProt Q8N2U9)
log2 fold change [3]: inactive: -0.209 | log2 fold change [4]: inactive: -0.02 | log2 fold change [5]: inactive: 0.093

SLC26A11 (UniProt Q86WA9)
log2 fold change [2]: inactive: -0.015

SLC35A3 isoform 2 (UniProt Q9Y2D2)
log2 fold change [1]: inactive: 0.008 | log2 fold change [2]: inactive: -0.57

SLCO2B1 (UniProt O94956)
log2 fold change [2]: inactive: -0.104

SLC44A1 (UniProt Q8WWI5)
log2 fold change [5]: inactive: 0.204 | log2 fold change [2]: inactive: -0.216

SLC50A1 (UniProt Q9BRV3)
log2 fold change [2]: inactive: -0.17

SLC3A2 (UniProt F5H867)
log2 fold change [3]: inactive: -0.066 | log2 fold change [4]: inactive: 0.124 | log2 fold change [2]: inactive: -0.127

SLC35B1 isoform 2 (UniProt P78383)
log2 fold change [1]: inactive: 0.012 | log2 fold change [5]: inactive: 0.072 | log2 fold change [2]: inactive: -0.137

SLC25A16 (UniProt P16260)
log2 fold change [1]: inactive: 0.039 | log2 fold change [2]: inactive: 0.024

SLC39A6 (UniProt Q13433)
log2 fold change [2]: inactive: 0.092

SLC25A36 (UniProt Q96CQ1)
log2 fold change [1]: inactive: 0.013 | log2 fold change [5]: inactive: 0.035 | log2 fold change [2]: inactive: 0

SLC46A1 (UniProt Q96NT5)
log2 fold change [5]: inactive: 0.088 | log2 fold change [2]: inactive: 0.029

SLX4 (UniProt Q8IY92)
log2 fold change [5]: inactive: -0.232

SLC25A28 (UniProt Q96A46)
log2 fold change [1]: inactive: 0.179

SMAD3 (UniProt P84022)
log2 fold change [5]: inactive: 0.141

SLC22A18 (UniProt Q96BI1)
log2 fold change [3]: inactive: 0.07 | log2 fold change [4]: inactive: 0.048 | log2 fold change [1]: inactive: -0.036 | log2 fold change [2]: inactive: -0.088

SLC39A1 (UniProt Q9NY26)
log2 fold change [3]: inactive: -0.218 | log2 fold change [4]: inactive: -0.021 | log2 fold change [5]: inactive: -0.089 | log2 fold change [2]: inactive: -0.174

SLC41A1 (UniProt Q8IVJ1)
log2 fold change [2]: inactive: -0.016

SLC38A6 isoform 2 (UniProt Q8IZM9)
log2 fold change [1]: inactive: 0.082

SLC66A1 (UniProt Q6ZP29)
log2 fold change [3]: inactive: -0.025 | log2 fold change [4]: inactive: -0.041 | log2 fold change [2]: inactive: 0

SLC25A39 (UniProt Q9BZJ4)
log2 fold change [5]: inactive: 0.385 | log2 fold change [2]: inactive: 0.094

SLC3A2 (UniProt F5GZS6)
log2 fold change [3]: inactive: 0.074 | log2 fold change [4]: inactive: -0.015 | log2 fold change [5]: inactive: 0.169 | log2 fold change [2]: inactive: 0.097
